{"source": "PubChem BioAssay AID493014", "about": "(National Center for Advancing Translational Sciences (NCATS), 2011)", "test": "qHTS Assay to Find Inhibitors of Chronic Active B-Cell Receptor Signaling", "details": "ABC-DLBCL IkBa-CBG/CBR reporter, luminescence ratio (green luciferase fused to IkBa over red control in TMD8 lymphoma cells), 4 h", "method_in_brief": "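Cell line TMD8 (human ABC DLBCL), stably expressing tet-inducible CBG68-IkBa fusion and CBR; IMDM/0.5% FBS; cpd up to 46 uM; dox induction, 4 h, 37C/5% CO2; dual luminescence; green/red ratio; MG132 control.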", "key": {"[1]": {"details": "measured here: CBR red luminescence, cell number"}, "[2]": {"details": "measured here: IkBa-CBG green luminescence"}}, "note": "The other results are listed elsewhere or left out. The main result of the screen is listed elsewhere. These columns were measured beside it and carry no call. The list favours compounds with an active or inconclusive main result. Potencies come from curve fits of mixed quality, noted in brackets.", "data": [{"smiles": "CC(C)CCC(C)N=Cc1c(O)n(Cc2ccccc2)c(=O)c2ccccc12", "note": "(centres undefined)", "values": [{"measurement": "AC50", "setting": "[1]", "result": "29.1 µM [rising, single point]"}]}, {"smiles": "N#C/C(=C/c1cccc([N+](=O)[O-])c1)C(=O)Nc1ccccc1O", "values": [{"measurement": "AC50", "setting": "[1]", "result": "10 µM [falling, partial curve]"}]}, {"smiles": "COc1ccccc1NC(=O)c1c(N=Cc2c(O)ccc3ccccc23)cnn1C", "values": [{"measurement": "AC50", "setting": "[1]", "result": "12.6 µM [rising, partial curve]"}, {"measurement": "AC50", "setting": "[2]", "result": "10 µM [falling, partial curve]"}]}, {"smiles": "CC(C)[C@H](NC(=O)N1c2ccccc2NC(=O)[C@@H]1C(C)C)C(=O)N1CCC(C(=O)O)CC1", "values": [{"measurement": "AC50", "setting": "[1]", "result": "0.708 µM [falling, partial curve, poor fit]"}]}, {"smiles": "C=CCn1c(SCc2c(C(=O)OC)sc(N)c2C(=O)OC)nnc1-c1ccc(Br)cc1", "values": [{"measurement": "AC50", "setting": "[1]", "result": "18.4 µM [falling, single point]"}]}, {"smiles": "O=CNNC(=O)c1cccc([N+](=O)[O-])c1", "values": [{"measurement": "AC50", "setting": "[1]", "result": "6.51 µM [falling, single point]"}, {"measurement": "AC50", "setting": "[2]", "result": "5.8 µM [rising, partial curve, poor fit]"}]}, {"smiles": "O=C1N(CN2CCOCC2)c2ccccc2C12OCC(CCl)O2", "note": "(centres undefined)", "values": [{"measurement": "AC50", "setting": "[1]", "result": "0.891 µM [rising, full curve, poor fit]"}]}, {"smiles": "Cc1ccc(-c2nn(-c3ccccc3)cc2C=C2C(=O)CC(C)(C)CC2=O)cc1", "values": [{"measurement": "AC50", "setting": "[1]", "result": "11.2 µM [rising, partial curve]"}]}, {"smiles": "CC(/C=C/c1ccco1)=N\\NC(=O)C(O)c1ccccc1", "note": "(centres undefined)", "values": [{"measurement": "AC50", "setting": "[1]", "result": "29.1 µM [falling, single point]"}]}, {"smiles": "O=C(C1CCN(Cc2ccc(OCc3ccccc3)cc2)CC1)N1CCCC1", "values": [{"measurement": "AC50", "setting": "[1]", "result": "0.058 µM [rising, full curve, poor fit]"}]}, {"smiles": "CCOC(=O)c1oc2ccccc2c1NC(=O)c1cccc(OC)c1OC", "values": [{"measurement": "AC50", "setting": "[1]", "result": "0.116 µM [falling, full curve, poor fit]"}]}, {"smiles": "COc1ccc(C(=O)/C=C/Nc2ccccn2)cc1", "values": [{"measurement": "AC50", "setting": "[1]", "result": "1.46 µM [falling, full curve]"}]}, {"smiles": "CCO[C@H]1OC(C(=O)Nc2ccccc2)=C[C@@H](c2ccc(C(F)(F)F)cc2)[C@@H]1CCCO", "values": [{"measurement": "AC50", "setting": "[1]", "result": "15.8 µM [falling, single point]"}]}, {"smiles": "Cc1cccc(OCC(=O)N2CCOCC2)c1", "values": [{"measurement": "AC50", "setting": "[1]", "result": "2.06 µM [rising, single point]"}]}, {"smiles": "CN(C)c1ccc(N=Nc2ccc(C(=O)O)cc2)cc1", "values": [{"measurement": "AC50", "setting": "[1]", "result": "1.26 µM [falling, full curve, poor fit]"}]}, {"smiles": "CN(CC(=O)Nc1ccccc1Br)C(=O)CCC1CCCC1", "values": [{"measurement": "AC50", "setting": "[1]", "result": "8.91 µM [falling, partial curve]"}]}, {"smiles": "COC(=O)CCCCC1SCC(NC(=O)c2ccccc2)C1OC(C)=O", "note": "(centres undefined)", "values": [{"measurement": "AC50", "setting": "[1]", "result": "7.94 µM [rising, partial curve, poor fit]"}]}, {"smiles": "O=C(COc1ccc(Br)cc1)N1CCN(c2ncccn2)CC1", "values": [{"measurement": "AC50", "setting": "[1]", "result": "25.9 µM [rising, partial curve, poor fit]"}]}, {"smiles": "CC(CCc1ccccc1)NC(=O)c1cc2sccc2n1C", "note": "(centres undefined)", "values": [{"measurement": "AC50", "setting": "[1]", "result": "29.1 µM [rising, single point]"}]}, {"smiles": "S=C(NCc1cccnc1)Nc1ccc(Cl)c(Cl)c1", "values": [{"measurement": "AC50", "setting": "[1]", "result": "11.2 µM [falling, single point]"}]}, {"smiles": "Nc1c(-c2ccc(Cl)cc2)cnc2ncnn12", "values": [{"measurement": "AC50", "setting": "[1]", "result": "3.16 µM [rising, partial curve, poor fit]"}]}, {"smiles": "O=C(N/N=C/c1cccs1)C1CC(=O)N(c2ccccc2)C1", "note": "(centres undefined)", "values": [{"measurement": "AC50", "setting": "[1]", "result": "7.08 µM [falling, partial curve, poor fit]"}]}, {"smiles": "CC(C)(C)c1cc(N)n(-c2ccc(C(=O)O)cc2)n1", "values": [{"measurement": "AC50", "setting": "[1]", "result": "22.4 µM [falling, single point]"}]}, {"smiles": "CCOC(=O)Cc1cc(=O)n2[nH]c(-c3ccccc3)cc2n1", "values": [{"measurement": "AC50", "setting": "[1]", "result": "25.9 µM [falling, partial curve, poor fit]"}]}, {"smiles": "O=C(COC(=O)COc1ccc(Cl)cc1)NCc1cccs1", "values": [{"measurement": "AC50", "setting": "[1]", "result": "11.6 µM [rising, partial curve, poor fit]"}]}, {"smiles": "O=C(O)c1cccc(-n2nc(-c3ccc(Cl)c([N+](=O)[O-])c3)c3ccccc3c2=O)c1", "values": [{"measurement": "AC50", "setting": "[1]", "result": "10 µM [falling, partial curve]"}]}, {"smiles": "O=C(COC(=O)c1ccccc1Nc1ccccc1)Nc1ccccc1", "values": [{"measurement": "AC50", "setting": "[1]", "result": "8.2 µM [rising, partial curve, poor fit]"}]}, {"smiles": "CC(=O)Nc1ccc(NC(=O)C(C)OC(=O)CCC2CCCC2)cc1", "note": "(centres undefined)", "values": [{"measurement": "AC50", "setting": "[1]", "result": "29.1 µM [rising, partial curve, poor fit]"}]}, {"smiles": "COc1ccc(S(=O)(=O)N(C)C[C@H]2Oc3ccc(NS(=O)(=O)c4c(C)noc4C)cc3C(=O)N([C@H](C)CO)C[C@@H]2C)cc1", "values": [{"measurement": "AC50", "setting": "[1]", "result": "1.84 µM [rising, partial curve]"}]}, {"smiles": "Cc1ccc(C2C(C#N)=C(N)Oc3n[nH]c(-c4cccs4)c32)s1", "note": "(centres undefined)", "values": [{"measurement": "AC50", "setting": "[1]", "result": "3.98 µM [falling, full curve, poor fit]"}]}, {"smiles": "O=C(Nc1nnc(-c2ccccc2)s1)c1ccc(Cl)c(S(=O)(=O)N2CCOCC2)c1", "values": [{"measurement": "AC50", "setting": "[1]", "result": "14.1 µM [rising, partial curve, poor fit]"}]}, {"smiles": "CN(Cc1nc(-c2ccc(C(F)(F)F)cc2)no1)C1CCOCC1", "values": [{"measurement": "AC50", "setting": "[1]", "result": "35.5 µM [rising, single point]"}]}]}
